Experimental data as given in the supplement of paper PMC12067093, “Discovery and optimisation of a covalent ligand for TRIM25 and its application to targeted protein ubiquitination” (Chemical Science, 2025).
The other results are listed elsewhere or left out.

By UniProt entry, the sequences of proteins in these tests, tags left out. Where a name states a change or a piece, a line headed by the entry shows the natural chain unless it says otherwise.
UniProt Q96CX2: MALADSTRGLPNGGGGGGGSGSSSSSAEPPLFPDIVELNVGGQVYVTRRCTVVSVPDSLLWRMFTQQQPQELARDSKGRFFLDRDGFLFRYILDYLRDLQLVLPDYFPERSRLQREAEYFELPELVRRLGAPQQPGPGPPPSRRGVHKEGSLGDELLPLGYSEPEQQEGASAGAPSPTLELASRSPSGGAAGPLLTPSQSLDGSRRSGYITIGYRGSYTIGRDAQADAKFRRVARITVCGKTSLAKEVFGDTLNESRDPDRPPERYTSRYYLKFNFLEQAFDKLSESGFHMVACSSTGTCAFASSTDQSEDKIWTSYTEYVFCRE
UniProt Q9H9L4: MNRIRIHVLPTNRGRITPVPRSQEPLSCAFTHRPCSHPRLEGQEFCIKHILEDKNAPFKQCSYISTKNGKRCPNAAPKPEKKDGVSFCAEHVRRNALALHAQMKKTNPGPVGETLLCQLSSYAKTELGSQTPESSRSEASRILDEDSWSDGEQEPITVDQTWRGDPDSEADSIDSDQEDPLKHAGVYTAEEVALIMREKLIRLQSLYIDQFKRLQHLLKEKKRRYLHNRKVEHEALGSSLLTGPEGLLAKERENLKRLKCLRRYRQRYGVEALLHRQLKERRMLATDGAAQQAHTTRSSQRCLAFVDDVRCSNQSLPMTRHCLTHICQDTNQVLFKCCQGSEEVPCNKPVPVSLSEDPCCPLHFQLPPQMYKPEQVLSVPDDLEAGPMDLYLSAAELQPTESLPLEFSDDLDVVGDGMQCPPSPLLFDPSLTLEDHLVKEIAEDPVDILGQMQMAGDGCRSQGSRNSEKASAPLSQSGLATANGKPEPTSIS
UniProt Q92831, whole entry, looked up: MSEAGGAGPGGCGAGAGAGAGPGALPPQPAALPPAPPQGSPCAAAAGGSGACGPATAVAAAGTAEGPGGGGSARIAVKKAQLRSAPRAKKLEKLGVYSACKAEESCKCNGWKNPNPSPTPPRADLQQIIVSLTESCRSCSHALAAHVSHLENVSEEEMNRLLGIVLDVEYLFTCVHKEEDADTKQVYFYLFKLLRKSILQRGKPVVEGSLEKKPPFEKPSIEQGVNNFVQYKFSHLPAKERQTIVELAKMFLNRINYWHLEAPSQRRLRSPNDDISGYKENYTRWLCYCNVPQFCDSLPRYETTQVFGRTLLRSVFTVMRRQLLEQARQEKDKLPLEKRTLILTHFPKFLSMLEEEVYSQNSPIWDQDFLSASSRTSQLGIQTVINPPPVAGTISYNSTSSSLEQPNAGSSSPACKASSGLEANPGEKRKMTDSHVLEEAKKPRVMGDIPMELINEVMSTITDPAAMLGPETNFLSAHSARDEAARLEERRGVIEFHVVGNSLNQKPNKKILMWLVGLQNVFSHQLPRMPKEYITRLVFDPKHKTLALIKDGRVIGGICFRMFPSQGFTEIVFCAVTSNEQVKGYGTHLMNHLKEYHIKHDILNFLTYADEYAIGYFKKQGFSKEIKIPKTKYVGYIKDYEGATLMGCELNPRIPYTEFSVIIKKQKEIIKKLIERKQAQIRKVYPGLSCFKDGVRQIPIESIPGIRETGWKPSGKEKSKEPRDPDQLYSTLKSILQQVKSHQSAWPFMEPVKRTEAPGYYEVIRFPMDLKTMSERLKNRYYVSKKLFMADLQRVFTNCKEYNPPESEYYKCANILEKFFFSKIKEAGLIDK
UniProt Q9Y2K7: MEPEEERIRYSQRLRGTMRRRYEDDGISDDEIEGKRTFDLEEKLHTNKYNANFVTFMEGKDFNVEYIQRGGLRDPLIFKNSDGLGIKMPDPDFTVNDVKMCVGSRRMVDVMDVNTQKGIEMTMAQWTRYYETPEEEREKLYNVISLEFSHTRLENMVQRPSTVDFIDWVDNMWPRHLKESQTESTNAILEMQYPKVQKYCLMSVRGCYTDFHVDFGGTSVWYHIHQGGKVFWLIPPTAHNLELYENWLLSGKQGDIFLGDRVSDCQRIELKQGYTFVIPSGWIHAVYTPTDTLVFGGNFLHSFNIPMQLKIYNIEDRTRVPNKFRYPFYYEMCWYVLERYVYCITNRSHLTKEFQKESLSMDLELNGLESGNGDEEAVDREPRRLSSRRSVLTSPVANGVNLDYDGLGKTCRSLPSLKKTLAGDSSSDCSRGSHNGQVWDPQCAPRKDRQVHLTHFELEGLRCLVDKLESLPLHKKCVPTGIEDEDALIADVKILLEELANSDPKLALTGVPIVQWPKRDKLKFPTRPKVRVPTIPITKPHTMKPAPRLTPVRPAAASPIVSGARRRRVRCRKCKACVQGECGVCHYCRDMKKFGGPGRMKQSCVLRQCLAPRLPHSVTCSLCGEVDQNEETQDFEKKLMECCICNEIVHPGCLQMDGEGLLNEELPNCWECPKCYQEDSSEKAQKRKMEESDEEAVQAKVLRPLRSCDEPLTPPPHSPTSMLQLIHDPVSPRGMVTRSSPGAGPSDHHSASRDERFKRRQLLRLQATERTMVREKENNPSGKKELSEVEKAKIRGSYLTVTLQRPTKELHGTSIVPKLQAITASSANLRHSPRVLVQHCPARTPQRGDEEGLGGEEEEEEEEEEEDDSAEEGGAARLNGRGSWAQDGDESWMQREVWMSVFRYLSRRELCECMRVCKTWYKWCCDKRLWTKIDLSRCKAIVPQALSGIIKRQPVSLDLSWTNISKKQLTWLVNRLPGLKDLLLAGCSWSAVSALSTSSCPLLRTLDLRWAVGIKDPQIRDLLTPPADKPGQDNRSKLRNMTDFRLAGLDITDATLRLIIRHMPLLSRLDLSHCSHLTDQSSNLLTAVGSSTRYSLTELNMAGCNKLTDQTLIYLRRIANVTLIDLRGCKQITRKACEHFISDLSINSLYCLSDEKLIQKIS
UniProt O15037: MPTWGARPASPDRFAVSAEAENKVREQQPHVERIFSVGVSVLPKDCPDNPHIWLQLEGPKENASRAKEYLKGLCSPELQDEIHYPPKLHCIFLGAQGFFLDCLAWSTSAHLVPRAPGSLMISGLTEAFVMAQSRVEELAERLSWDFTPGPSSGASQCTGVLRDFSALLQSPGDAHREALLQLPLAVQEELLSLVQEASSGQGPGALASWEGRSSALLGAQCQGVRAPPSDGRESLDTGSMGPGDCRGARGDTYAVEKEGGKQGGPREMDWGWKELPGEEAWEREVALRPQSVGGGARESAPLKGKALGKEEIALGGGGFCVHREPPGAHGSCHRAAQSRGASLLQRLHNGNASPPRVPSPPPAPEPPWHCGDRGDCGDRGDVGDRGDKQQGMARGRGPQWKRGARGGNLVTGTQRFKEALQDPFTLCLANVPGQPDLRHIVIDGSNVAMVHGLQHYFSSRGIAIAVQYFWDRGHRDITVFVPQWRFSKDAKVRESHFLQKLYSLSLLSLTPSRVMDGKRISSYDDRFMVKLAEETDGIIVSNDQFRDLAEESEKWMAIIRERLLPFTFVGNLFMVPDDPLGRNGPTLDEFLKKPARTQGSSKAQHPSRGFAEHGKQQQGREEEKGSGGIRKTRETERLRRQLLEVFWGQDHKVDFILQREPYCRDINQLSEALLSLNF
UniProt Q15046, whole entry, looked up: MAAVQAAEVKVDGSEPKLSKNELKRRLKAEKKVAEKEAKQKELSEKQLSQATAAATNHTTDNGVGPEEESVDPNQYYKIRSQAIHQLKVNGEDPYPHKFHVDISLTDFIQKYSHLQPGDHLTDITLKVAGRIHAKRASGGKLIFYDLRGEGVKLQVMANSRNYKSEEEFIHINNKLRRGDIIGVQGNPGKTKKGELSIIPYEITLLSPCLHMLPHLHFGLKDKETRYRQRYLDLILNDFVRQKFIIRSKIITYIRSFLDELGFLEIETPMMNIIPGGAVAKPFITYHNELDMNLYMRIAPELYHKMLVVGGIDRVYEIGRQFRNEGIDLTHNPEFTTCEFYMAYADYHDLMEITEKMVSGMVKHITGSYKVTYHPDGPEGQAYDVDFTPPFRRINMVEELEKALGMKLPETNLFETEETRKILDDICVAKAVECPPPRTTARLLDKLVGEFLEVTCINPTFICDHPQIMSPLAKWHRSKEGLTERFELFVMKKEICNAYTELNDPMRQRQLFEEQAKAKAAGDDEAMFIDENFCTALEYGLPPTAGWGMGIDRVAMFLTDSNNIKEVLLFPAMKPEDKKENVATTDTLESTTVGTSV
UniProt O94819: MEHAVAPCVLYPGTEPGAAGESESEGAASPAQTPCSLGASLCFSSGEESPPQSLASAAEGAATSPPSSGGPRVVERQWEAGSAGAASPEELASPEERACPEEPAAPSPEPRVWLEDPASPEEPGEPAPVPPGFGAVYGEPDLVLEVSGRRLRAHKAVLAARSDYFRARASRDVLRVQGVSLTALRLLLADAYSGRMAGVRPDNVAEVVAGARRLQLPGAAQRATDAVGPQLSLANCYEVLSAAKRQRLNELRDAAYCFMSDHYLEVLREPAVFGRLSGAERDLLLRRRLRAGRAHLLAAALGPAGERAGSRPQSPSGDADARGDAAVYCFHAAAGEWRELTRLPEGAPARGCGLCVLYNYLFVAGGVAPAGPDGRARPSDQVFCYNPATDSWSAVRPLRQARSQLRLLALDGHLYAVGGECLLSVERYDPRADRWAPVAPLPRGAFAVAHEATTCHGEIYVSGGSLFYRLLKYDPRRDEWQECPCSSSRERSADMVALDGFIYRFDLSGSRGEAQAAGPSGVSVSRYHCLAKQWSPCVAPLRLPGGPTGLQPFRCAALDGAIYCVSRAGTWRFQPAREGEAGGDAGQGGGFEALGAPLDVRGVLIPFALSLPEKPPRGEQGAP
UniProt Q7LBC6: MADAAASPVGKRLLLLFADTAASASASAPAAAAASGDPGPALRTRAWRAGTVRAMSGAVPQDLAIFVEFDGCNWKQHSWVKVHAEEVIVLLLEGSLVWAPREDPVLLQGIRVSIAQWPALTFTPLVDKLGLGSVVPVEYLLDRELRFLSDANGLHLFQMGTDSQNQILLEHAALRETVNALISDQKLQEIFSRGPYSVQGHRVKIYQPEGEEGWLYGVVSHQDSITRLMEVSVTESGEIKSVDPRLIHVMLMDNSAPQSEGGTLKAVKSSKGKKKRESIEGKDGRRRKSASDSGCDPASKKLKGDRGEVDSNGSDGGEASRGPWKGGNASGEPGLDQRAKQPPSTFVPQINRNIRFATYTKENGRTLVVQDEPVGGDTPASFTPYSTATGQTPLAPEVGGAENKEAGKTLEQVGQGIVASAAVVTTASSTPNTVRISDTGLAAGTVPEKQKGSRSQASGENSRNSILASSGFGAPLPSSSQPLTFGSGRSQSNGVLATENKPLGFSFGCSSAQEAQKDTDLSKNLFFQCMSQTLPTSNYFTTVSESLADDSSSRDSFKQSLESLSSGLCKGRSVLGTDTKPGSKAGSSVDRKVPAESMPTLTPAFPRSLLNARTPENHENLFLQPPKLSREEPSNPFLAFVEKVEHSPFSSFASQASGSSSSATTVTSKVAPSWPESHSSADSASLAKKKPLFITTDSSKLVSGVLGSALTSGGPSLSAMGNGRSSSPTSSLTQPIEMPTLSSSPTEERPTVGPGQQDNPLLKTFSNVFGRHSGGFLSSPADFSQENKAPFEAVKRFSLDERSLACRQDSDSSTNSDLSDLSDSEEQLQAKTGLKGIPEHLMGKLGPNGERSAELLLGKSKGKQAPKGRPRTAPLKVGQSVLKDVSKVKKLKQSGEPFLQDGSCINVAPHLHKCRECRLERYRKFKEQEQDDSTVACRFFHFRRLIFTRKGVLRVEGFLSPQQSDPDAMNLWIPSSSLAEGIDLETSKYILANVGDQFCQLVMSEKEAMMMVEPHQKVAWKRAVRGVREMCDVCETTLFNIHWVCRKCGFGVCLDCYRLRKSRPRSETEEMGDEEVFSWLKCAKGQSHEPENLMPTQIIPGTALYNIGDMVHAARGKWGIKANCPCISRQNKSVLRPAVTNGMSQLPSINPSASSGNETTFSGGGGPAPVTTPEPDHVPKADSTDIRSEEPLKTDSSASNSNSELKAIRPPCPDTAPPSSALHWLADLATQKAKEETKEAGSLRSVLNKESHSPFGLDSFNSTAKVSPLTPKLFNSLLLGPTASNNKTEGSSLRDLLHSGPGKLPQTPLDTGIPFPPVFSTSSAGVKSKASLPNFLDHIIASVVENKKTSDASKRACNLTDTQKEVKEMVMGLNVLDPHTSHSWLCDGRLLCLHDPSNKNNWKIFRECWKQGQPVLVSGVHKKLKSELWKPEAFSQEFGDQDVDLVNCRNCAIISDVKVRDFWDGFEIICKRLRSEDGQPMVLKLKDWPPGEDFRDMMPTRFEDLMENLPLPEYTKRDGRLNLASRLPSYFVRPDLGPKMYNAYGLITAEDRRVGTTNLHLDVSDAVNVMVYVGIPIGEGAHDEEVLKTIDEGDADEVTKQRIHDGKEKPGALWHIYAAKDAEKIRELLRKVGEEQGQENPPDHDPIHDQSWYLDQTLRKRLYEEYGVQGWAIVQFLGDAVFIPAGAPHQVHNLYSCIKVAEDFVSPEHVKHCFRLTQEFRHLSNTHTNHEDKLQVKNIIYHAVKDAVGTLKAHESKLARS

Compound: Cc1cc(ccc1-c1ccccc1)C(=O)N1CCCN(CC1)C(=O)CCl [compound 10]
Test: probe-labelled cysteine peptide fold change vs DMSO (competition) (log2 fold change); higher = less target engagement (more negative = stronger competition)
Conditions: THP-1, incubation time: 4 h
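Further: competitive profiling in live THP-1 cells: cysteine peptides tagged with an iodoacetamide desthiobiotin (IA-DTB) probe, intensity after compound treatment relative to DMSO-treated cells.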

## KCTD12_Q96CX2_50_CTVVSVPDSLLWR (UniProt Q96CX2)
10 µM
  probe-labelled cysteine peptide fold change: 0.0972
50 µM
  probe-labelled cysteine peptide fold change: -0.28

## KDM5C_P41229_707_EAFELLPDDERQCIK (UniProt P41229)
10 µM
  probe-labelled cysteine peptide fold change: -0.00949
50 µM
  probe-labelled cysteine peptide fold change: -0.0329

## KANSL2_Q9H9L4_46_LEGQEFCIK (UniProt Q9H9L4)
10 µM
  probe-labelled cysteine peptide fold change: 0.221
50 µM
  probe-labelled cysteine peptide fold change: 0.219

## KDM1A_O60341_360_CPLYEANGQAVPK (UniProt O60341)
10 µM
  probe-labelled cysteine peptide fold change: -0.23
50 µM
  probe-labelled cysteine peptide fold change: 0.0513

## KAT2B_Q92831_100_LGVYSACK (UniProt Q92831)
10 µM
  probe-labelled cysteine peptide fold change: 0.153
50 µM
  probe-labelled cysteine peptide fold change: -0.0935

## KDM2A_Q9Y2K7_1104_YSLTELNMAGCNK (UniProt Q9Y2K7)
10 µM
  probe-labelled cysteine peptide fold change: 0.268
50 µM
  probe-labelled cysteine peptide fold change: 0.166

## ITPR1_Q14643_638_FLDYLSDLCVSMNK (UniProt Q14643)
10 µM
  probe-labelled cysteine peptide fold change: 0.0654
50 µM
  probe-labelled cysteine peptide fold change: -0.0946

## KHNYN_O15037_46_DCPDNPHIWLQLEGPK (UniProt O15037)
10 µM
  probe-labelled cysteine peptide fold change: -0.0262
50 µM
  probe-labelled cysteine peptide fold change: -0.604

## KDM3A_Q9Y4C1_467_AGVNSDSPNNCSGK (UniProt Q9Y4C1)
10 µM
  probe-labelled cysteine peptide fold change: -0.0265
50 µM
  probe-labelled cysteine peptide fold change: 0.0124

## KDELC2_Q7Z4H8_495+497_DGMELVPQPEDSTAICQCHR (UniProt Q7Z4H8)
10 µM
  probe-labelled cysteine peptide fold change: -0.554
50 µM
  probe-labelled cysteine peptide fold change: -0.631

## KIAA0100_Q14667_471_GVLTVDHLCWR (UniProt Q14667)
10 µM
  probe-labelled cysteine peptide fold change: 0.0373
50 µM
  probe-labelled cysteine peptide fold change: 0.124

## KARS_Q15046_496_EICNAYTELNDPMR (UniProt Q15046)
10 µM
  probe-labelled cysteine peptide fold change: 0.000401
50 µM
  probe-labelled cysteine peptide fold change: -0.0822

## KBTBD11_O94819_537_QWSPCVAPLR (UniProt O94819)
10 µM
  probe-labelled cysteine peptide fold change: -0.00854
50 µM
  probe-labelled cysteine peptide fold change: -0.122

## ITPR2_Q14571_1246_MNEVMNLAHTFLQNFCR (UniProt Q14571)
10 µM
  probe-labelled cysteine peptide fold change: 0.0121
50 µM
  probe-labelled cysteine peptide fold change: 0.0144

## KDM3B_Q7LBC6_1386_EMVMGLNVLDPHTSHSWLCDGR (UniProt Q7LBC6)
10 µM
  probe-labelled cysteine peptide fold change: 0.0519
50 µM
  probe-labelled cysteine peptide fold change: -0.155
